PubChem BioAssay AID602196 | INSERM | 2012
Aim: 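Modifiers of cisplatin sensitivity in A549 cells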. Cells: human A549 lung cancer cells. Reagents: siRNA pair against human genes. Timing: 48 h transfection before cisplatin; time from cisplatin to read-out not stated. Treatment: cisplatin at a dose killing half of control-siRNA cells; exact dose and duration not given. Detection: 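Cisplatin cell death as a shift from the 50% death seen with control siRNA; siRNAs toxic or growth-blocking alone scored 0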. Reading the numbers: two-siRNA summed score (-2 to +2): higher = both siRNAs protect from cisplatin killing; -2 means both sensitise; mean protection from cisplatin (shift in death): higher = protection from cisplatin killing. Active means: 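Each siRNA scores 0 if harmful alone by LDH or WST-1, otherwise +1 if it reduces and -1 if it increases cisplatin killing; a gene is active when both siRNAs agree (sum +2 or -2)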. Meaning of the calls: active = both siRNAs shift cisplatin killing the same way; inactive = no consistent shift, or siRNA harmful alone.
The whole screen tested about 23,000 reagents; shown is a part drawn at random. Of all reagents, 455 (2%) got an active call. 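Active includes both protection and sensitisation; some change values fall well beyond the stated -50 to +50 range.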 Further read-outs or replicates are left out here. Not stated in the record: the amount of reagent.

TBC1D16: two-siRNA summed score (-2 to +2) = 1; mean protection from cisplatin (shift in death) (%) = 13.4; outcome = inactive
SEC16B: two-siRNA summed score (-2 to +2) = 0; mean protection from cisplatin (shift in death) (%) = -4.6; outcome = inactive
MSX2: two-siRNA summed score (-2 to +2) = 0; mean protection from cisplatin (shift in death) (%) = 2.7; outcome = inactive
GID4: two-siRNA summed score (-2 to +2) = 0; mean protection from cisplatin (shift in death) (%) = 0.8; outcome = inactive
PEX16: two-siRNA summed score (-2 to +2) = 0; mean protection from cisplatin (shift in death) (%) = 21.7; outcome = inactive
CHRNB3: two-siRNA summed score (-2 to +2) = 0; mean protection from cisplatin (shift in death) (%) = 4.6; outcome = inactive
LOC400340: two-siRNA summed score (-2 to +2) = -1; mean protection from cisplatin (shift in death) (%) = -9.9; outcome = inactive
LOC392467: two-siRNA summed score (-2 to +2) = 0; mean protection from cisplatin (shift in death) (%) = 4.4; outcome = inactive
LOC339782: two-siRNA summed score (-2 to +2) = 0; mean protection from cisplatin (shift in death) (%) = -2.6; outcome = inactive
OR2B11: two-siRNA summed score (-2 to +2) = -2; mean protection from cisplatin (shift in death) (%) = -17; outcome = active
RAB17: two-siRNA summed score (-2 to +2) = -1; mean protection from cisplatin (shift in death) (%) = -0.3; outcome = inactive
LOC440786: two-siRNA summed score (-2 to +2) = 1; mean protection from cisplatin (shift in death) (%) = 21.1; outcome = inactive
ARHGEF3: two-siRNA summed score (-2 to +2) = 0; mean protection from cisplatin (shift in death) (%) = 4.3; outcome = inactive
LOC442435: two-siRNA summed score (-2 to +2) = 0; mean protection from cisplatin (shift in death) (%) = 9.2; outcome = inactive
IDS: two-siRNA summed score (-2 to +2) = 0; mean protection from cisplatin (shift in death) (%) = -22; outcome = inactive
CAMSAP1: two-siRNA summed score (-2 to +2) = 0; mean protection from cisplatin (shift in death) (%) = 10.3; outcome = inactive
LRBA: two-siRNA summed score (-2 to +2) = 1; mean protection from cisplatin (shift in death) (%) = 18.5; outcome = inactive
LOC440505: two-siRNA summed score (-2 to +2) = 1; mean protection from cisplatin (shift in death) (%) = 17.1; outcome = inactive
CES4A: two-siRNA summed score (-2 to +2) = 0; mean protection from cisplatin (shift in death) (%) = 5.7; outcome = inactive
LOC389819: two-siRNA summed score (-2 to +2) = 0; mean protection from cisplatin (shift in death) (%) = 4.6; outcome = inactive
LOC442122 (retired record): two-siRNA summed score (-2 to +2) = 0; mean protection from cisplatin (shift in death) (%) = 6.3; outcome = inactive
LOC401861: two-siRNA summed score (-2 to +2) = 0; mean protection from cisplatin (shift in death) (%) = 19.6; outcome = inactive
ZNF7: two-siRNA summed score (-2 to +2) = 1; mean protection from cisplatin (shift in death) (%) = 10.1; outcome = inactive
SMC3: two-siRNA summed score (-2 to +2) = 0; mean protection from cisplatin (shift in death) (%) = 3.6; outcome = inactive
WFIKKN2: two-siRNA summed score (-2 to +2) = 1; mean protection from cisplatin (shift in death) (%) = 20.3; outcome = inactive
INTS5: two-siRNA summed score (-2 to +2) = 1; mean protection from cisplatin (shift in death) (%) = 22.4; outcome = inactive
CATIP: two-siRNA summed score (-2 to +2) = 0; mean protection from cisplatin (shift in death) (%) = 13.7; outcome = inactive
TMC1: two-siRNA summed score (-2 to +2) = 0; mean protection from cisplatin (shift in death) (%) = 2.3; outcome = inactive
MUC1: two-siRNA summed score (-2 to +2) = 1; mean protection from cisplatin (shift in death) (%) = -0.3; outcome = inactive
UNC80: two-siRNA summed score (-2 to +2) = 0; mean protection from cisplatin (shift in death) (%) = 15; outcome = inactive
MRPL51: two-siRNA summed score (-2 to +2) = 0; mean protection from cisplatin (shift in death) (%) = 5.5; outcome = inactive

Records above called active (1):
OR2B11: two-siRNA summed score (-2 to +2) = -2; mean protection from cisplatin (shift in death) (%) = -17; outcome = active
